Among the data in patent publication US8168628B2, “Conjugated psychotropic drugs and uses thereof” (Ramot at Tel-Aviv University Ltd., priority 2001, dated 2012) are IC50 values, retold here.

Holding throughout (assay type): cell-based
The test system of one test is Jurkat T lymphoma cells. Kind of test: Proliferation / viability test, Jurkat T lymphoma cells. The settings on record: Homo sapiens, linear regression of survival percentage. As for the experimental part:
(§1) Cell lines: Human prostate carcinoma (PC-3), human colon carcinoma (HT-29), murine melanoma (B-16) and its drug resistant subclone (B-16 MDR), mouse fibroblasts (3T3), myeloid leukemia (HL 60) and its drug resistant subclone (HL 60 MX2), endometrium cell line (MES SA) and its drug resistant subclone (MES DX5), jurkat T lymphoma and monocyte leukemia (U-937), were used in this study.
(§2) Proliferation of cancer and normal cells: Proliferation was measured by neutral red assay or by a fluorometric assay quantitating DNA content. In the neutral red assay, the neutral red is absorbed by lysosomes, thus causing coloring of living cells. Quantitative analysis is performed by colorimetric assay (ELISA reader at 550 nm). In the fluorometric assay, alamar blue is used as a redox indicator. Alamar blue fluorescence was measured at an excitation wavelength of 544 nm and an emission wavelength of […] (FLUOstar BMG Lab Technologies, Offenburg, Germany).
(§3) The cells were sub-cultured and the tested compounds were added thereto in increasing concentrations. The IC50 values were determined by linear regression of the survival percentage of the cells.

The next test has as its system MES SA. The test can be described thus: Proliferation test, MES SA cells. The settings on record: Homo sapiens, linear regression of survival percentage. As for the experimental part:
as §1, §2, §3

The test system of another test is HL 60. The test can be described thus: Proliferation test, HL 60 cells. The settings on record: Homo sapiens, linear regression of survival percentage. The protocol:
as §1, §2, §3

A further test relates to U-937. The test can be described thus: Proliferation test, U-937 cells. The settings on record: Homo sapiens, linear regression of survival percentage. As for the experimental part:
as §1, §2, §3

A further test relates to MES SA DX5 (MDR). Kind of test: Proliferation test, MES SA DX5 (MDR) cells. The settings on record: Homo sapiens, linear regression of survival percentage. As for the experimental part: as §1, §2, §3
The subject of another test is HL 60 MX2 (MDR). The test can be described thus: Proliferation test, HL 60 MX2 (MDR) cells. The settings on record: Homo sapiens, HL60/MX2; linear regression of survival percentage. The protocol: as §1, §2, §3

By IC50 is commonly meant the point on the concentration scale where inhibition reaches its midpoint. Higher therefore signals lower potency.

On to `OCCN1CCN(CCCN2c3ccccc3Sc3ccc(C(F)(F)F)cc32)CC1` [Fluphenazine, fluphenazine, reference compound], for which the IC50 with Jurkat T lymphoma cells was 14.3 µM; in the test with MES SA, 14.8 µM; with HL 60 it was 20.9 µM; with U-937, 21.5 µM; with MES SA DX5 (MDR), 13.7 µM; in the test on HL 60 MX2 (MDR) it was 21.8 µM.
